# The other results are listed elsewhere or left out. Further columns of the screen follow, without active or inactive calls. The list favours compounds with an active or inconclusive main result. Potencies come from curve fits of mixed quality, noted in brackets.
# Assay: qHTS Assay for Lipid Storage Modulators in Drosophila S3 Cells;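 for cell number change: cells counted by Cell Tracker Red CMTPX staining in the red channel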
# Details: BODIPY lipid droplet fluorescence, 18-24 h; for cell number change: measured here: cell count max response, cells fed with added oleic acid
# Summary of the method: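 Drosophila S3 cells got compounds at several concentrations plus oleic acid (400 uM solution). Laser-scanning cytometry with 488 nm excitation read lipid droplets at 500-530 nm and cells at 575-640 nm. Percent activity was relative to 20 uM Triacsin C.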
# [1] = measured here: cell number channel AC50, cells fed with added oleic acid
# [2] = measured here: lipid fluorescence (Fed channel) AC50, cells fed with added oleic acid
SMILES,cell number change [%],AC50 [1],AC50 [2]
COc1ccccc1NS(=O)(=O)c1ccc2ccccc2c1,5.56,–,–
Cc1cc(C(=O)COC(=O)CNC(=O)c2ccc(F)cc2)c(C)n1Cc1ccco1,–,"0.58 µM [rising, single point]",–
Cc1ccc(CCC(=O)Nc2ccc([N+](=O)[O-])cc2Cl)o1,-7.14,–,"29.1 µM [falling, single point]"
O=C1C=C(c2cccc(Br)c2)C[C@@H](c2ccc(F)cc2)C1,-12.2,"0.058 µM [falling, full curve, poor fit]","29.1 µM [falling, single point]"
COc1ccc(CNc2cc(C)ccn2)c(O)c1,-15.2,–,"29.1 µM [falling, single point]"
O=C(COC(=O)c1ccc(S(=O)(=O)NCc2ccco2)cc1)NCC1CCCCC1,–,–,"18.4 µM [falling, partial curve]"
CCNc1ccc(C2(O)C(=O)c3ccccc3C2=O)cc1,29.2,–,"4.61 µM [falling, single point]"
CCOc1nc(Nc2ccc(OC)cc2)nc(N2CCOCC2)n1,27.4,–,"0.326 µM [rising, full curve]"
Cc1oc2c(c(C)cc3oc(=O)c(CC(=O)NCC(=O)NCC(=O)NCC(C)O)c(C)c32)c1C (centres undefined),7.04,–,"29.1 µM [rising, partial curve]"
O=C(Nc1cc(C(F)(F)F)ccc1N1CCCC1)C1=COCCO1,-44.3,"29.1 µM [falling, single point]","29.1 µM [falling, single point]"
O=C(Nc1ccc(S(=O)(=O)NC2=NCCCCC2)cc1)c1ccc(=O)[nH]c1,-102,–,–
COCCN1C(=O)C(=O)/C(=C(/O)c2ccc3c(c2)OCCO3)C1c1ccc(C(=O)OC)cc1 (centres undefined),13.6,–,"0.731 µM [falling, single point]"
COC(=O)[C@H](CCSC)NC(=O)NCc1cccs1,1.11,–,"1.16 µM [falling, full curve]"
COc1ccc2oc(=O)c(C(=O)N3CCCc4ccccc43)cc2c1,67.7,"13 µM [rising, partial curve]","18.4 µM [rising, partial curve]"
CCOc1cccc(CN2CCCC(N3CCN(c4cccc(Cl)c4)CC3)C2)c1O (centres undefined),5.22,–,"6.51 µM [rising, single point]"
C=CCNC(=S)N/N=C(\C)c1ccc(-n2ccnc2)cc1,34.4,–,"2.91 µM [rising, full curve]"
O=C(CSc1nncs1)Nc1cc(-c2ccccc2)nn1-c1ccccc1,6.82,–,"0.291 µM [rising, full curve]"
COc1ccc(CNC(=O)C2CC(c3ccc(OC)cc3)=NO2)cc1 (centres undefined),-51.5,"9.2 µM [falling, partial curve, poor fit]","0.0164 µM [falling, full curve, poor fit]"
CCOC(=O)c1c(C)[nH]c(C(=O)OCC(=O)N(C)C2CCS(=O)(=O)C2)c1C (centres undefined),0.34,–,"0.326 µM [rising, full curve, poor fit]"
Cn1c(=O)c2cc(S(=O)(=O)Nc3ccc4c(c3)OCO4)ccc2n(C)c1=O,–,"4.11 µM [rising, single point]",–

SMILES,cell number change [%],AC50 [1],AC50 [2]
Cc1ccc2[nH]c3c(NCc4ccco4)ncnc3c2c1,-35.4,"8.2 µM [falling, partial curve]","0.146 µM [rising, full curve, poor fit]"
CCOc1ccc(NC(=O)COC(=O)C2C3CC4OC(=O)C2C4C3)cc1 (centres undefined),-12.4,–,–
CC(Oc1ccc(F)cc1)C(=O)Nc1cc(S(=O)(=O)N2CCOCC2)ccc1N1CCCC1 (centres undefined),–,"7.31 µM [falling, single point]",–
CC(=O)NNc1nc(-c2ccccc2)cs1,0.294,"4.61 µM [falling, single point]","4.11 µM [falling, single point]"
O=C(CCCn1c(=S)[nH]c2cc3c(cc2c1=O)OCO3)N1CCc2ccccc2C1,-69.9,"29.1 µM [falling, single point]",–
O=C1Nc2ccccc2C1=Nc1cccc([N+](=O)[O-])c1,12.9,–,–
CCOc1ccc(COC(=O)C2CC(=O)N(CCc3ccccc3)C2)cc1OC (centres undefined),1.01,"3.26 µM [rising, single point]",–
COc1ccc(S(=O)(=O)NCCCCNS(=O)(=O)c2ccc(OC)cc2)cc1,-32.3,"23.1 µM [falling, single point]","18.4 µM [rising, single point]"
CCOC(=O)c1ccc(S(=O)(=O)N2CCN(C(=O)c3cc(=O)c4ccccc4o3)CC2)cc1,24.9,"0.731 µM [rising, full curve, poor fit]",–
O=C(CSc1ccc2ccccc2n1)N/N=C/c1ccccc1O,-10.7,–,"1.64 µM [rising, partial curve]"
Cc1nc2ncnn2c(C)c1Cc1ccccc1Cl,1.84,–,–
O=C(Nc1ccon1)c1sc2ccccc2c1Cl,–,–,"0.58 µM [rising, single point]"
COc1cc(OC)cc(OCC(O)Cn2cnc3cc(C)c(C)cc32)c1 (centres undefined),2.92,–,"8.2 µM [falling, single point]"
OC(CN1CCN(C(c2ccccc2)c2ccccc2)CC1)c1ccc(Br)cc1 (centres undefined),-56.5,"16.4 µM [falling, partial curve]","13 µM [falling, partial curve]"
CCOc1cc(C(=O)Nc2ccc(F)cc2)cc(Br)c1OC,19.2,–,"29.1 µM [rising, single point]"
CCOc1ccc(C(=S)N2CCCC2)cc1OCC,1.57,–,–
COc1ccc(S(=O)(=O)Nc2ccccc2C(=O)N2CCOCC2)cc1Br,-21.8,–,–
CC(CNC(=O)c1ccc(N)cc1)NC(=O)c1ccc(N)cc1 (centres undefined),-18.1,–,"0.092 µM [falling, full curve, poor fit]"
CCC(=O)c1ccc(OCC(=O)NCCc2ccccn2)cc1,-36,"32.6 µM [falling, single point]",–

# 2 records picked at random from those above:
SMILES,cell number change [%],AC50 [1],AC50 [2]
O=C(Nc1ccon1)c1sc2ccccc2c1Cl,–,–,"0.58 µM [rising, single point]"
CCOc1ccc(NC(=O)COC(=O)C2C3CC4OC(=O)C2C4C3)cc1 (centres undefined),-12.4,–,–

# — PubChem BioAssay AID2685 (National Center for Advancing Translational Sciences (NCATS), 2010)
